The record followed here is US20150266957A1.

These are yes or no findings as the source states them, for the method shown. Some results given as binding are weak or reduced against the parent protein; the word gives no strength.

The target of assay [1] is cynomolgus monkey PROKR2 (cynomolgus monkey (Macaca fascicularis)). As to the kind of experiment: flow cytometry, HEK293 cells expressing the target. For orientation: In flow cytometry, cells or beads pass a laser one at a time.
For assay [2] the target is unchanged. As to the kind of experiment: flow cytometry, HEK293 cells expressing the target, 13 nM antibody.

B1: H2M6385N (antibody, V domains shown)
VH: EVQVVESGGGLVKPGGSLRLSCAASGFTFSNVWMTWVRQAPGKGLEWVGRIKSKIEGGTTDYAASVKGRFTISRDDSKNTQSLQMNSLKSEDTAVYYCSTGHLAYWGQGTLVIVSS
VL: DIVMTQTPLSSPVSLGQPASISCRSSQSLVHSDGSTYLSWLQQRPGQPPRLLIYKISNRFSGVPDRFSGSGAGTDFTLKISRVEAEDVGIYYCMQATQFPTFGQGTKVEIK
For B1, the binding result in assay [1] and in assay [2] was “binds” in each case.
